Results deposited as PubChem BioAssay AID602203 (INSERM, 2012)
Test: 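Follow-up of knock-downs that sensitize or protect A549 cells against cisplatin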 (follow-up of hits). System: human A549 lung cancer cells. Reagent: siRNA pair against human genes. Challenge: cisplatin at a dose killing half of control-siRNA cells, given 48 h after transfection. Measurement: 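Two siRNAs per gene scored +1 protective, -1 sensitizing, 0 if toxic by LDH or growth-reducing by WST-1; cisplatin given 48 h later at 50% control kill; scores summed, mean death shift versus control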. Reading the numbers: summed siRNA score for cisplatin death: higher = more siRNAs reduced cisplatin-induced cell death; change in cisplatin death versus control: higher = fewer cells died than in control. Active means: In these data the active calls have summed siRNA score for cisplatin death at about -3 or lower, or at about 3 or higher.
In all, the deposit lists 999 reagents; shown is a part drawn at random. 85 of all reagents (8.5%) count as active. 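Unclear how single-siRNA scores of -1, 0 or +1 give the printed -4 to 4 range; calls lie near -3 or 3 and beyond.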 Unmarked entries are inactive. The record does not give: the amount of reagent, the time to read-out, the dose of the treatment.

gene symbol	summed siRNA score for cisplatin death	change in cisplatin death versus control (percentage points)
SRP72	-1	
WNT6	-1	
LOC440236	-1	
SMIM32	0	
CDC42BPA	0	
RO60	0	
CMYA5	2	
ZNF75D	-1	
PPIG	-2	
PROP1	2	
LOC402382	1	
S1PR3	-1	
GLE1	1	
MED26	-2	
LOC440731	1	
HMCN1	0	
H3C7	1	
ZDHHC9	-4 (active)	-12.4
GUCY1A2	-2	
PLXNB1	0	
KRT27	2	
DHRSX	3 (active)	10.6
ABCA1	-1	
RXFP2	0	
TGM5	-1	
IRF8	2	
ACSL3	1	
CXCL16	-2	
OR5H1	1	
ECH1	1	
LOC387854	0	
ATRNL1	-1	
SLC25A38P1	2	
NTNG1	-1	
OR2B11	-1	
GGT7	1	
ANKRD20A19P	0	
FLJ40288	2	
IKBKG	1	
ESM1	0	
CREBL2	0	
DDI1	-1	
LOC440334	2	
LOC402123	3 (active)	9.13
KLF8	2	
LONRF2	-1	
LOC133790	0	
FBLN7	1	
LOC286561	-1	
TMEM187	-1	
PNMT	-2	

Not a retest: an excerpt of the list.
gene symbol	summed siRNA score for cisplatin death	change in cisplatin death versus control (percentage points)
LOC387854	0	
ATRNL1	-1	
SLC25A38P1	2	
NTNG1	-1	
OR2B11	-1	
GGT7	1	
ANKRD20A19P	0	
FLJ40288	2	
IKBKG	1	
ESM1	0	
CREBL2	0	
DDI1	-1	
LOC440334	2	
LOC402123	3 (active)	9.13
KLF8	2	
LONRF2	-1	

The list goes on.
gene symbol	summed siRNA score for cisplatin death	change in cisplatin death versus control (percentage points)
IL23R	-1	
MMP9	-1	
LRP6	0	
COX10	1	
DYRK2	1	
LOC392164	0	
HSFY2	-1	
PRSS16	2	
GDF5	-1	
LOC440065	1	
SLC25A36	0	
GRB7	-2	
CHRNA4	-1	
COMMD9	3 (active)	12.6
PKP3	1	
ZFP36L1	2	
DPY19L3-DT	2	
PNLIPRP1	-1	
ACAD10	0	
RBBP8	0	
CCR7	-1	
IFI27L1	0	
CEP57L1P1	-1	
CBLB	2	
SLC52A1	2	
SHD	-1	
DHRS11	0	
HOXC9	-1	
SLC9A7	0	
GPR52	-1	
SLC5A4	-1	
DUSP8	1	
MMP25	0	
BEND2	0	
IRF2	1	
LOC441721	2	
ASTL	3 (active)	8.64
SDR9C7	1	
GTF2I	1	
PIGR	-1	
PIK3CD	0	
STAMBPL1	-1	
UBE2C	-1	
LOC390231	-1	
CFDP1	1	
IGFBP1	-1	
IFT57	0	
HSDL2	1	
TFF1	-3 (active)	-14
PTGES	1	
LOC389786	1	
FRMD6-AS1	1	
CLPP	0	
RFC1	-2	
LOC442123	1	
ERMAP	1	
